PubChem BioAssay AID504791, Drosophila RNAi Screening Center – 2011
Purpose: 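Factors in Argonaute-based small RNA production and activity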 (primary screen). Cells: Drosophila S2-derived reporter cells. Reagents: long dsRNA against Drosophila genes, about 150-250 ng dsRNA per well (siRNA assay); about 80-120 ng (miRNA assay). Time to read-out: about 5 days (siRNA assay); about 4 days (miRNA assay). Challenge: copper sulfate induction of reporters: 25 µM (siRNA assay); 200 mM stated (miRNA assay), 1-2 days before reading. Measurement: 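Per-well ratio of Renilla over firefly light, expressed relative to that plate's average ratio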. Rule for the call: 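a well was a first-pass pick when its plate-scaled ratio rose above 1.5 (siRNA assay) or 1.6 (miRNA assay), or dropped below 0.6; a gene counted only if two separate dsRNAs agreed on retest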.
The screen tested about 23,000 reagents; below is an unselected part of those that have a named target and a result. Of all reagents, 199 (0.86%) are marked active. 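Plate-scaled ratios behind the calls are not deposited; printed light signals are raw; many rows marked increased or decreased are still called inactive.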 The record does not give: the direction of the score.

predicted target | amplicon | stable assay Renilla, run 1 (luminescence) | stable assay firefly, run 1 (luminescence) | call
CG15812 | DRSC08479 | 7410 | 3.94e5 | inactive
Noc1 | DRSC10921 | 7836 | 4.35e5 | inactive
CG32081 | DRSC09861 | 7918 | 4.81e5 | inactive
CG11269 | DRSC04094 | 6427 | 3.89e5 | inactive
CG3358 | DRSC04992 | 2.93e5 | 1.33e6 | inactive
CG6576 | DRSC10663 | 6234 | 3.38e5 | inactive
Aldh-III | DRSC06047 | 14933 | 1.97e6 | inactive
bark | DRSC00635 | 7079 | 3.59e5 | inactive
CtsL3 | DRSC12171 | 8195 | 3.77e5 | inactive
p120ctn | DRSC07753 | 6099 | 3.03e5 | inactive
Frq1 | DRSC19961 | 4703 | 3.48e5 | inactive
CG34046 (retired record) | DRSC14075 | 6723 | 3.17e5 | inactive
CG10638 | DRSC09762 | 8859 | 5.87e5 | inactive
CG9503 | DRSC20186 | 5343 | 4.21e5 | inactive
CG9503 | DRSC21766 | 9254 | 5.59e5 | inactive
CG18171 | DRSC08524 | 6582 | 3.65e5 | inactive
CG34404 | DRSC15335 | 7819 | 4.71e5 | inactive
CG34404 | DRSC15978 | 8323 | 5.69e5 | inactive
CG15036 | DRSC17968 | 4175 | 2.14e5 | inactive
stl | DRSC04396 | 1.45e5 | 2.83e5 | inactive
LManIV | DRSC03222 | 6863 | 4.82e5 | inactive
Megf8 | DRSC03058 | 13698 | 3.26e5 | inactive
CG11178 | DRSC19396 | 8202 | 5.29e5 | inactive
bru3 | DRSC09280 | 6635 | 3.17e5 | inactive
bru3 | DRSC09687 | 9075 | 5.02e5 | inactive
bru3 | DRSC09887 | 7250 | 4.46e5 | inactive
bru3 | DRSC22732 | 2339 | 3.25e5 | inactive
side-VIII | DRSC05880 | 6819 | 4.02e5 | inactive
side-VIII | DRSC05883 | 4847 | 4.44e5 | inactive
side-VIII | DRSC06157 | 3968 | 3.10e5 | inactive
side-VIII | DRSC23187 | 2511 | 2.14e5 | inactive
tRNA:Leu-CAA-2-3 | DRSC13633 | 5750 | 4.43e5 | inactive
AOX2 | DRSC15338 | 7324 | 4.48e5 | inactive
CG5180 | DRSC15731 | 8412 | 4.43e5 | inactive

Quoted from the entries so far, 4 entries:
predicted target | amplicon | stable assay Renilla, run 1 (luminescence) | stable assay firefly, run 1 (luminescence) | call
CG34046 (retired record) | DRSC14075 | 6723 | 3.17e5 | inactive
CG10638 | DRSC09762 | 8859 | 5.87e5 | inactive
CG9503 | DRSC20186 | 5343 | 4.21e5 | inactive
CG9503 | DRSC21766 | 9254 | 5.59e5 | inactive
